Assay results published in PubChem BioAssay AID493014 (National Center for Advancing Translational Sciences (NCATS), 2011).
Values joined by “and” are separate entries in the source; they are usually repeats but may differ in a detail not shown here. Identical values can stand only once. Hit rate of the full screen: of about 340,000 compounds, about 170 (0.05%) were called active. The inconclusive results got no clear call from the source; some entries with a clear call stand among them for comparison. The call rests on the fitted dose curve; in most records, active means well fitted inhibition curve with a large enough effect in the signal ratio, with a control signal flat (not every such curve was filed as active); inconclusive means small, poorly fitted or top-dose-only effect, or effect the other way, or a change in a side signal; inactive means flat fitted curve, though single readings scatter; the % refers to the signal ratio. Potencies of inconclusive entries are doubtful fits and often do not repeat.

Test: qHTS Assay to Find Inhibitors of Chronic Active B-Cell Receptor Signaling;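 on activity change, negative = inhibition: plate controls were basal doxycycline-induced cells for no effect and cells given 10 µM MG132 for full effect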
Conditions: ABC-DLBCL IkBa-CBG/CBR reporter, luminescence ratio (green luciferase fused to IkBa over red control in TMD8 lymphoma cells), 4 h; activity change, negative = inhibition: at 46.1 µM (top of the series) unless noted
In short: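 Compounds up to 46 uM were incubated four hours with TMD8 cells whose green CBG68 luciferase is fused to IkappaBalpha; red CBR luminescence normalised the signal, and concentration-effect curves were fitted to fusion, red and ratio data.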
Potency means the concentration at half of the fitted maximal effect.

Compound	activity change, negative = inhibition	Potency
COc1ccccc1C(=O)COC(=O)C1(C)CC1(Cl)Cl (centres undefined)	inconclusive: 4.68%	–
COc1ccccc1-c1cc(C(=O)NCCc2ccccc2)no1	–	inconclusive: 4.11 µM [cytotoxic, single point]
Nc1nc(=S)c2ncn(C3CCCC3)c2[nH]1	inconclusive: 9.2%	–
O=C(O)C1CCC(NSc2ccccc2[N+](=O)[O-])CC1 (centres undefined)	–	inconclusive: 31.6 µM [falling, partial curve, poor fit]
COc1ccc(C(=O)CC(=O)C(=O)Nc2c(C)cccc2C)cc1	inconclusive: 0.216%	–
CN(CC(=O)O/N=C(\N)c1cccc([N+](=O)[O-])c1)S(=O)(=O)c1ccccc1	inconclusive: 4.02%	–
CC(C)(C)c1nnc(NC(=O)Nc2ccc(Cl)cc2)s1	inconclusive: 11.8%	–
ClC(/C=N/n1cnnc1)=C/c1ccccc1	inconclusive: -9.63%	–
O=c1[nH]c(C2CCN(S(=O)(=O)c3ccc(C(F)(F)F)cc3)CC2)nc2c1nnn2Cc1ccc(F)cc1	inconclusive: -13.2%	–
CN(Cc1nc(-c2cccs2)no1)CC(O)c1ccccc1 (centres undefined)	–	inconclusive: 11.2 µM [falling, partial curve, poor fit]
O=C(NNC(=O)c1ccccc1-n1cccc1)c1ccc(F)cc1	inconclusive: 4.9%	–
Fc1nc(N2CCCC2)c(F)c(Oc2ccccc2Oc2c(F)c(F)nc(N3CCCC3)c2F)c1F	–	inconclusive: 15.8 µM [falling, partial curve]
Cc1nc(C)n(CC(=O)N2CCCC(C(=O)c3cccc4ccccc34)C2)n1 (centres undefined)	inactive: -0.653%	–
CN1C(=O)S/C(=C/c2ccc(OCc3cccc(C(=O)O)c3)cc2)C1=O	–	inconclusive: 12.6 µM [falling, partial curve]
COc1ccc(SC[C@H](Cc2ccccc2)N2CCN(CCc3ccccc3)CCC2=O)cc1	inconclusive: -8.69%	–
O=C1OC(c2ccc(F)cc2)=C/C1=C\c1ccc([N+](=O)[O-])o1	–	inconclusive: 22.4 µM [falling, single point]
CC(C)CC(=O)N1CCN(S(=O)(=O)c2ccc3ccccc3c2)CC1	inconclusive: -27.5%	–
Cn1c(=O)n(C)c2cc(NC(=O)c3cc4ccccc4o3)ccc21	–	inconclusive: 29.1 µM [falling, single point]
Cn1c(=O)[nH]c(=O)c2c1nc(SCCN1CCOCC1)n2CCCc1ccccc1	inconclusive: 10.9%	–
Cc1ccc2ccc3cccc4ccc1c2c34	inconclusive: -2.16%	–
CCOC(=O)c1c(C)[nH]c(C)c1S(=O)(=O)NCC1CCN(Cc2ccc(C)cc2)CC1	inactive: -8.36%	–
Cc1cc(C)nc(SCc2ccc(C(=O)N/N=C/c3ccccn3)cc2)n1	inactive: -1.65%	–
O=C(CCc1ccccc1)N[C@@H]1c2ccccc2CC[C@@H]1OCc1ccccc1	inactive: -4%	–
S=c1[nH]nc(-c2ccncc2)n1/N=C/C(Cl)=C\c1ccccc1	–	inconclusive: 25.1 µM [cytotoxic, single point]
COC(=O)c1ccc(C(=S)NCC2(N(C)C)CCCCC2)cc1	inconclusive: -21.1%	–
O=C1c2ccccc2C(=O)N1c1cccc2cccnc12	inconclusive: 2.2%	–
CC(=O)n1nc(-c2ccccc2)nc1NCc1cccs1	–	inconclusive: 12.6 µM [falling, single point]

Compound	activity change, negative = inhibition	Potency
O=C(NN=C1CCCCCC1)c1cccnc1	–	inconclusive: 22.4 µM [falling, single point]
CCN(CC)c1ccc(NC(=O)CN2CCN(S(=O)(=O)c3cc(Cl)ccc3OC)CC2)cc1	inconclusive: 16.6%	–
NNC(=O)CSc1cccc2cccnc12	inactive: -6.92%	–
COc1ccccc1NC(=O)CN1CCN(c2ccccc2F)CC1	inactive: -0.891%	–
N#Cc1c(NC(=O)CCn2cnc3ccccc3c2=O)oc(-c2ccccc2)c1-c1ccccc1	–	inconclusive: 14.6 µM [rising, partial curve, poor fit]
O=C(CCSc1nnc2scc(-c3ccccc3)n12)Nc1nc(-c2ccccc2)ns1	inconclusive: 1.54%	–
O=C1N=C(N2CCCCC2)S/C1=C\c1ccncc1	inactive: -5.29%	–
COC(=O)C1=C(C)N(Cc2ccccc2)C(=NCCc2cccnc2)N[C@H]1c1ccc(Br)cc1	inconclusive: 20.7% and inconclusive: -2.7%	–
Cc1oc(-c2ccc3c(c2)OCCO3)cc1C(=O)NC(CCC(=O)O)C(=O)O (centres undefined)	inconclusive: 8.98%	–
CCNC(=O)c1ccc(C23CC4CC(CC(C4)C2)C3)o1	inconclusive: 0.451%	–
NC(=O)C1CCN(C(=O)CSc2nc(O)cc(=O)[nH]2)CC1	inconclusive: 1.38%	–
CCOC(=O)c1ccc(NC2=CC(=O)C(=O)c3ccccc32)cc1	inconclusive: 4.19%	–
C#CC(=O)N(c1cc(OC)ccc1OC)C(C(=O)NC1CCCC1)c1cccs1 (centres undefined)	–	inconclusive: 22.4 µM [falling, partial curve]
O=C(Nc1cccc(S(=O)(=O)N2CCCCC2)c1)c1ccccn1	inactive: 6.98%	–
COc1ccc(-n2cccc2/C=C/[N+](=O)[O-])cc1	–	inconclusive: 4.61 µM [falling, single point]
CC(=O)c1nn(-c2cccc(Br)c2)cc1C(=O)c1ccc(Cl)cc1	inconclusive: 3.17%	–
Cc1[nH]c2ccccc2c1C(=O)CSc1nncn1C	–	inconclusive: 6.51 µM [falling, single point]
Cn1c(-c2cccc([N+](=O)[O-])c2)cnc1NCc1ccc(C#N)cc1	inactive: 3.98%	–
O=[N+]([O-])c1ccccc1S(=O)(=O)N1CCSCC1	inconclusive: -1.88%	–
C/C(=N/NC(=O)c1ccco1)c1ccc(NC(=O)c2ccc(Br)o2)cc1	–	inconclusive: 17.8 µM [falling, partial curve]
CCN(CC(=O)NC1CCS(=O)(=O)C1)S(=O)(=O)c1ccccc1Cl (centres undefined)	inactive: -0.375%	–
Nn1c(-c2ccc(O)cc2)nnc1-c1ccc(O)cc1	–	inconclusive: 35.5 µM [falling, single point]
Cc1ccc(OCC(=O)O/N=C(\N)Cc2ccc([N+](=O)[O-])cc2)cc1C	inconclusive: -1.17%	–
CCOC(=O)Cn1c(=N)n(Cc2ccccc2)c2ccccc21	inactive: -11.4%	–
COc1ccccc1N1CCN(C(=O)c2ccc3nc(-c4ccco4)c(-c4ccco4)nc3c2)CC1	inconclusive: 21.6%	–
Cc1ccc(C(=O)c2c3ccccc3[n+]([O-])n2CCC(=O)O)cc1	inconclusive: 11.8%	–
O=C(COc1ccc(S(=O)(=O)N2CCCC2)cc1)Nc1ccc(F)cc1	inconclusive: -3.81%	–

Compound	activity change, negative = inhibition	Potency
CCCCOP(=O)(OCCCC)C1(NS(=O)(=O)c2ccccc2)C=CC(=O)c2ccccc21 (centres undefined)	inconclusive: -6.38%	–
O=[N+]([O-])c1cc(-c2nnc(-c3ccccc3)o2)ccc1Oc1ccc(Cl)cc1	–	inconclusive: 1.84 µM [rising, partial curve]
COc1ccccc1NC(=O)N1CCN(c2cccc(C(F)(F)F)c2)CC1	inconclusive: 0.979%	–
COc1ccc(C(=O)Nc2ccc3c(c2)Cc2ccccc2-3)cc1	inconclusive: 1.98%	–
COc1cc(NC(=O)C/C(C)=N/NC(=O)C(=O)NC2CCCCC2)c(OC)cc1Cl	–	inconclusive: 22.4 µM [falling, single point]
Cc1ccc(CN2CCN(CC(=O)N/N=C/c3ccc(C)o3)CC2)cc1	inactive: -1.62%	–
COc1ccc2c(-c3ccccc3)cc(SCC(=O)NC3CCS(=O)(=O)C3)nc2c1 (centres undefined)	inactive: 2.35%	–
CCOC(=O)C1C(=O)N(C(=O)c2ccc(OC)cc2)CC1c1ccccc1 (centres undefined)	inconclusive: -3.61%	–
COc1cc(S(=O)(=O)Nc2ccc(C)cc2)ccc1N=Cc1c(C)[nH]n(-c2ccc(C)cc2)c1=O	–	inconclusive: 16.4 µM [activator, partial curve, poor fit]
COc1cc(NC(=O)COC(=O)CCc2cc(OC)c(OC)c(OC)c2)cc(OC)c1	–	inconclusive: 6.31 µM [falling, single point]
CCOc1ccc2oc(C(=O)NCc3nc4ccccc4[nH]3)c(C)c2c1	inactive: -13.7%	–
COc1cc(CNCCCN2CCOCC2)cc(Br)c1OCc1ccc(Cl)cc1	inconclusive: 13.9%	–
CC(=O)N1CCc2c(sc(NC(=O)CCS(=O)(=O)c3ccccc3)c2C#N)C1	inconclusive: -1.87%	–
COc1ccc(C2c3ccc4ccccc4c3Oc3ncn(CCO)c(=N)c32)cc1 (centres undefined)	inconclusive: -21.3%	–
CC1(C)Cc2c(sc(NC(=O)Nc3ccccc3)c2C(N)=O)CO1	–	inconclusive: 15.8 µM [falling, single point]
O=C(OCc1csc(-c2ccccc2)n1)c1ccccc1O	–	inconclusive: 35.5 µM [rising, single point]
N/C(=N\OCC(=O)Nc1ccccc1)c1nonc1N	inconclusive: -12.5%	–
Cc1noc(C)c1C(=O)Nc1nc(-c2ccc([N+](=O)[O-])cc2)cs1	inactive: 5.98%	–
CCOC(=O)c1ccc2c(c1)nc(SCC(=O)N1CCCCC1)n2CC	inactive: 1.82%	–
Cc1ccc(C(=O)c2ccc([N+](=O)[O-])cc2)c(C)c1	inconclusive: 4.73%	–
N#Cc1sc2nc(N3CCCCC3)c3c(c2c1N)CCCC3	inconclusive: 5.48%	–
Cc1ccc(CC(=O)Nc2ccc(S(=O)(=O)N3CCOCC3)cc2)cc1C	inactive: -2.28%	–
O=C(NNC(=S)Nc1ccccc1Cl)c1ccccc1	–	inconclusive: 35.5 µM [rising, single point]
CC1CN(S(=O)(=O)c2cccc(C(=O)Nc3ccccc3N3CCOCC3)c2)CC(C)O1 (centres undefined)	inactive: -16.1%	–
CCOC(=O)C(CSCC(=O)c1ccc(Cl)cc1)NC(=O)OC(C)(C)C (centres undefined)	inconclusive: 6.78%	–
